Assay results published in patent publication US20240376204A1.
These are yes or no findings as the source states them, for the method shown. Some results given as binding are weak or reduced against the parent protein; the word gives no strength.

The chains behind the UniProt entries cited, without tags or fusion partners. Residues count along the entry.
UniProt Q15116, residues 25-167: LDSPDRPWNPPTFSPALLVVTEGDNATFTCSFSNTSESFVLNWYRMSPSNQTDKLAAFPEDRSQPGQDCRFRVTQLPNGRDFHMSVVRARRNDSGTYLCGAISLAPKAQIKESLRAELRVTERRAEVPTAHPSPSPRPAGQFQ

Target: Biotinylated human PD-1 protein (Avitag-His Tag) (human) (UniProt Q15116)
Assay: yeast display, enrichment on biotinylated human PD-1 magnetic beads

B1: A6 (VHH, variable region) (VHH)
VHH: EVQLVESGGGLVQAGGSLRLSCAVSGRTFSSAAMGWFRQAPGKEREFVAAISWSFGSTYYADSVKGRFTISRDNAKNTVYLQMNSLKPEDTAVYYCAADPSIETMGGGWDYWGQGTQVTVSS
For B1, which binding is on record?
The binding was “binds”.
